Here are results for one molecule from article PMC3942490.

The target in this test is T1, GRF6 tagged with the hemagglutinin (HA) epitope (Arabidopsis thaliana) (UniProt P48349).
T1 sequence: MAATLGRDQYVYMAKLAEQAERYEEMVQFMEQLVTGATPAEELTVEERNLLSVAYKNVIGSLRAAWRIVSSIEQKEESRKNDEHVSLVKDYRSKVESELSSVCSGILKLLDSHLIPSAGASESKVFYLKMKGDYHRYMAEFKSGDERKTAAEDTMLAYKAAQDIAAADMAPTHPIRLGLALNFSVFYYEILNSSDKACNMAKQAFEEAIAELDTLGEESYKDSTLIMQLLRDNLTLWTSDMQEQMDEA
In words: co-IP; fusion proteins transiently coexpressed in N. benthamiana leaves; cleared extracts in TBS with 5 mM DTT, protease and phosphatase inhibitors, incubated 2 h at 4°C with conjugated antibodies (anti-MaBP or anti-HA); washes TBS, TBS 0.5% Triton X-100, TBS 0.3 M NaCl 1% NP-40; Western blot of the immunoprecipitate. In general terms: Immunoblotting shows a protein as a band on a membrane.

These are yes or no findings as the source states them, for the method shown. In cells and extracts the contact can be indirect. Some results given as binding are weak or reduced against the parent protein; the word gives no strength. Sequences can lack the tags named with a protein.

B1: MPK11 fused to YFP (protein, UniProt Q9LMM5 1-369)
chain: MSIEKPFFGDDSNRGVSINGGRYVQYNVYGNLFEVSKKYVPPLRPIGRGASGIVCAAWNSETGEEVAIKKIGNAFGNIIDAKRTLREIKLLKHMDHDNVIAIIDIIRPPQPDNFNDVHIVYELMDTDLHHIIRSNQPLTDDHSRFFLYQLLRGLKYVHSANVLHRDLKPSNLLLNANCDLKIGDFGLARTKSETDFMTEYVVTRWYRAPELLLNCSEYTAAIDIWSVGCILGEIMTREPLFPGRDYVQQLRLITELIGSPDDSSLGFLRSDNARRYVRQLPQYPRQNFAARFPNMSVNAVDLLQKMLVFDPNRRITVDEALCHPYLAPLHEYNEEPVCVRPFHFDFEQPSLTEENIKELIYRESVKFNP
As for B1, the binding entry was “binds”.
